The text below walks through data of publication PMC7819943, “Rice protein-binding microarrays: a tool to detect cis-acting elements near promoter regions in rice”.

The other results are listed elsewhere or left out.

The target in the experiment is T1, OsSMF1 (Oryza sativa, UniProt Q6ZLB0 1-436).
T1 sequence: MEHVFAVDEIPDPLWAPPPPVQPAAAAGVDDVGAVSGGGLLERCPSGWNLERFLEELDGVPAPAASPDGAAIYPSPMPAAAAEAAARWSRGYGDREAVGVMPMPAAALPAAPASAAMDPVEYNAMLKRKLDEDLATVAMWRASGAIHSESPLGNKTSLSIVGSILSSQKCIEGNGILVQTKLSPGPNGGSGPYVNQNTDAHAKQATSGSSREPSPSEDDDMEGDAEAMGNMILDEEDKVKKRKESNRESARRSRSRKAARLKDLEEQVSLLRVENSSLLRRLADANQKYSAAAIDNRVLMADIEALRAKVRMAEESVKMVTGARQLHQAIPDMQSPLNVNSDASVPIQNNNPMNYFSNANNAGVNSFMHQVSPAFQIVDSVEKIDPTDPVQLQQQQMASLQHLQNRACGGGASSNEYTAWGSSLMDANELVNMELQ
The experiment in a line: protein-binding microarray (RPBM); PBS, 2% BSA, 51.3 ng/ul salmon testes DNA, 50 uM zinc acetate, 200 nM TF, 25 C, 1 h; high values mean tight binding. As to conditions: protein: recombinant; tags: N-terminal polyhistidine and DsRed monomer fusion (pET32a); chain copies: 2; label: CyDye5-dUTP incorporated in the synthesized complementary strand; 3' TTTTT single-stranded linker to array surface; dsDNA, one strand shown. In outline: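 The binding signal for each feature is its fluorescence intensity in arbitrary units. An Axon 4000B scanner was used to read a custom Agilent array that had been made double-stranded with Cy5-dUTP primer extension, blocked with 2% BSA, incubated at 25 °C for 1 h with 200 nM protein in PBS, 2% BSA, salmon testes DNA and 50 µM zinc acetate, and washed. The protein was an N-terminal polyhistidine–DsRed transcription factor fusion from E. coli BL21-CodonPlus, purified on Ni–NTA.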
Take “ACGCCGACGAGATCGCCGCCGTCCGCGCGGTTCTTGGCGCCGGAGTCACCTAGTGCAG”: the binding signal is 3310 fluorescence intensity (a.u.).
For the sequence “GAGGGTTCTTGATGCGTGACCTGATGCGGGAGGCGTATTGCGGAGTCACCTAGTGCAG”, the binding signal is 39200 fluorescence intensity (a.u.).
The value for “GGAATGTTTGGAAGGTGGAATTTTAAGCTTCAAAATTTCCCGGAGTCACCTAGTGCAG” was 23400 fluorescence intensity (a.u.).
As for “CATGGATGATGATGATGTGTATCTTCCGTTGAATACTGCACGGAGTCACCTAGTGCAG”, the figure is 5850 fluorescence intensity (a.u.); as for “CTCTCCTCCACATCATCACTCAATCCAATGTGGCATTCTTCGGAGTCACCTAGTGCAG”, 13000 fluorescence intensity (a.u.); as for “AGGAAGTACTCAAACCATGACGACAGCCAAAACACGTAAGCGGAGTCACCTAGTGCAG”, 7640 fluorescence intensity (a.u.).
Regarding “ACACTCGCTATGTTTGCTACGGCATGCGTAAGAAGTCATGCGGAGTCACCTAGTGCAG”, the binding signal is 3510 fluorescence intensity (a.u.).
The value for “ACCATCACATGTCACCACCACTCATGGTCTCATCTTTTCGCGGAGTCACCTAGTGCAG” was 4610 fluorescence intensity (a.u.); that for “ATTTCTTTCAACTTCCCAACTTCTCCACCACCTAAACACACGGAGTCACCTAGTGCAG” was 32100 fluorescence intensity (a.u.).
As for “GTGATTCGATTCCTTGCCGCGCCAAATCTTGGTTTGAGATCGGAGTCACCTAGTGCAG”, the figure is 24500 fluorescence intensity (a.u.); as for “ACTGTGGTTTCTAGTGGGTTTTATTATTTTATAATTTGTACGGAGTCACCTAGTGCAG”, 16600 fluorescence intensity (a.u.).
The value for “AGATGCCGGGAGACGTCACGTGATGTCACGCGCGGTCCACCGGAGTCACCTAGTGCAG” was 11400 fluorescence intensity (a.u.); that for “CGCTTGGCGCCGAGCCCTCCACGTCGCCCGCTCGTCTCTTCGGAGTCACCTAGTGCAG” was 6140 fluorescence intensity (a.u.); that for “CTGGCCTTGCTCCCTCCCATGACGTACCTTCTCCTTCCTCCGGAGTCACCTAGTGCAG” was 5140 fluorescence intensity (a.u.).
Turning to “GCGCTTCCGTTCTGAGTCACTGACGAGGTGGGCCCTTAGGCGGAGTCACCTAGTGCAG”, the binding signal was 8860 fluorescence intensity (a.u.).
As for “AACTGAAGTGTACCCAAATCTTGATCCAAGTATTGGTACTCGGAGTCACCTAGTGCAG”, the figure is 15800 fluorescence intensity (a.u.); as for “AAAATTATATTTCAAATAACTCTGCAATTACACGCGTTAACGGAGTCACCTAGTGCAG”, 3210 fluorescence intensity (a.u.).
As for “AAATATATAGTGCCAATTATTGTATATGTGGCAAATAAAGCGGAGTCACCTAGTGCAG”, the figure is 25900 fluorescence intensity (a.u.); as for “GTAGTGTGAGTTGTGGTAAGCAAGAGATAGGGATAAGGGGCGGAGTCACCTAGTGCAG”, 4290 fluorescence intensity (a.u.); as for “AGCCGCGCGCGCTCCAGTTCCACTTCCAACGACACGTCCCCGGAGTCACCTAGTGCAG”, 3730 fluorescence intensity (a.u.).
As for “TTCATACAACACATATATACAACTTCACAAAATCTTAAGTCGGAGTCACCTAGTGCAG”, the figure is 3160 fluorescence intensity (a.u.); as for “TTTAGCAATGCACGTGGACAAAGATATGTCCAAGTTCATACGGAGTCACCTAGTGCAG”, 5680 fluorescence intensity (a.u.); as for “CTTTCTCCGTCCGTCCATTGTCACTTGCATCATCGTCGTACGGAGTCACCTAGTGCAG”, 3980 fluorescence intensity (a.u.).
Regarding “GCCCACCCGCCCGGACACGTGGACGGTCACGGTGGGCCGTCGGAGTCACCTAGTGCAG”, the binding signal is 9700 fluorescence intensity (a.u.).
As for “CTTAACGTGACGTAGCAGGTTTATCACCAACTATTGCACTCGGAGTCACCTAGTGCAG”, the figure is 11100 fluorescence intensity (a.u.); as for “ACTGTGCCATGATTAGATTAGATGCGTGTCCAGATTGCTGCGGAGTCACCTAGTGCAG”, 4920 fluorescence intensity (a.u.); as for “ATATGTTGCCACGCTGGACCGCCACGTAAGTCAGTCAATCCGGAGTCACCTAGTGCAG”, 20000 fluorescence intensity (a.u.).
As for “TGCACCAGGATTGCACCATCGTCACCTGCAACTTTTGGGCCGGAGTCACCTAGTGCAG”, the figure is 3370 fluorescence intensity (a.u.).
The value for “TGGTTGATAGCTACGTCACAAACGTCACACTGATCAAAGTCGGAGTCACCTAGTGCAG” was 5830 fluorescence intensity (a.u.); that for “GGTTGGGACTTGGTAAGGTTGTGGTGGTGTCATATGTCTCCGGAGTCACCTAGTGCAG” was 4090 fluorescence intensity (a.u.).
On to “CGTGACGGCTGAGTCAGCATGGGACCTGCGTGGGCCCCACCGGAGTCACCTAGTGCAG”, for which the binding signal was 16000 fluorescence intensity (a.u.).
Consider “AAGAAAGAGTGTGTGTACTGTTGCACTGTGTACCGTGTAGCGGAGTCACCTAGTGCAG”, for which the binding signal was 4390 fluorescence intensity (a.u.).
For “TCGATTCTGATAGCGTGCAGTACGTGTTGTTGACAAGTGACGGAGTCACCTAGTGCAG”, the binding signal is 3320 fluorescence intensity (a.u.).
As for “TCTCGTTTGTTTGTCATATGTAACACGTATGAATACCGACCGGAGTCACCTAGTGCAG”, the figure is 6210 fluorescence intensity (a.u.); as for “TGGCGGTGGTGGTTGCGACACACTTGGCATGTCCTATATACGGAGTCACCTAGTGCAG”, 3710 fluorescence intensity (a.u.); as for “TGTGTGAGCTTTAGGGTGTGTTTGGATGGAGGGTTTTGGGCGGAGTCACCTAGTGCAG”, 4190 fluorescence intensity (a.u.).
Turning to “TGCCTTAAGTAAACAGTTTCCACATAATACTATCTCACGCCGGAGTCACCTAGTGCAG”, the binding signal is 3290 fluorescence intensity (a.u.).
The value for “TCCAGTGCTATTAGTTGACAAAGCACTACAGCGTTGTGTGCGGAGTCACCTAGTGCAG” was 3500 fluorescence intensity (a.u.); that for “ATGCATGACAGCACACCACACATTGACACCACTGAGGCAGCGGAGTCACCTAGTGCAG” was 3260 fluorescence intensity (a.u.); that for “ACTTCCCCAACAACAAAGCCCAACTCCTGCGCCCTGACACCGGAGTCACCTAGTGCAG” was 6150 fluorescence intensity (a.u.).
The value for “AACTCGACTTGACCATCTGGCCCCACCTGTCAGCCTCTCACGGAGTCACCTAGTGCAG” was 3220 fluorescence intensity (a.u.); that for “GAAGTGGACTTATTCCAACTAAGGCTGATTCAGCAGGCCACGGAGTCACCTAGTGCAG” was 3940 fluorescence intensity (a.u.).
